Binding signal data for 42 sequences are collected here from paper PMC7819943, “Rice protein-binding microarrays: a tool to detect cis-acting elements near promoter regions in rice”.

Protein sequences, listed by entry. Tags and fused reporters are not part of them.
UniProt Q0JBA9, entry or part of it: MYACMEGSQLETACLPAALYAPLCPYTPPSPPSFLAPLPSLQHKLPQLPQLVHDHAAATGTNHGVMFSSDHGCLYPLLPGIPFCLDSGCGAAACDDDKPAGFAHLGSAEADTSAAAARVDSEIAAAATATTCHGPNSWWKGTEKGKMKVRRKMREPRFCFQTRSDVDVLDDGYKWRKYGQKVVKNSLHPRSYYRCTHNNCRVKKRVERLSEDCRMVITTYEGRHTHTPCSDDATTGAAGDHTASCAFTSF

Some of the results follow.

In this assay the target is OsWRKY34 (Oryza sativa, UniProt Q0JBA9 1-250). The assay can be described thus: protein-binding microarray (RPBM); PBS, 2% BSA, 51.3 ng/ul salmon testes DNA, 50 uM zinc acetate, 200 nM TF, 25 C, 1 h; high values mean tight binding. To be noted: protein: recombinant; tags: N-terminal polyhistidine and DsRed monomer fusion (pET32a); label: CyDye5-dUTP incorporated in the synthesized complementary strand; 3' TTTTT single-stranded linker to array surface; dsDNA, one strand shown. In short, it runs like this: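 Binding signal is reported as fluorescence intensity per feature (arbitrary units) from an Axon 4000B scanner. Incubation used 200 nM of each Ni–NTA-purified, N-terminally polyhistidine- and DsRed-fused transcription factor from E. coli BL21-CodonPlus on a double-stranded custom Agilent array for 1 h at 25 °C, with 50 µM zinc acetate in the buffer, followed by washing.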
Regarding “ATTTACCATTAGACACTGCATATGTCCTATACTACATGTACGGAGTCACCTAGTGCAG”, the binding signal is 8430 fluorescence intensity (a.u.).
The same measure for “CATTCTCTTCTCAACCAATAACAACTCTTCCACCATTCACCGGAGTCACCTAGTGCAG”: 9540 fluorescence intensity (a.u.); for “TAAACTTGTTTTTTTGGGTGGGGAACTTGGGATCTGAGGGCGGAGTCACCTAGTGCAG”: 10900 fluorescence intensity (a.u.); for “GCTTGCAACGTTTGACCACTCGTCTTATTCAAATTTTTTTCGGAGTCACCTAGTGCAG”: 12000 fluorescence intensity (a.u.).
The same measure for “TGGCCGGAGCTAGGGTGGGTGGGTGGTTGGCCGCACCACCCGGAGTCACCTAGTGCAG”: 8250 fluorescence intensity (a.u.); for “GGGGCAGTGTCATCTCAGCTAGCCATTTGTTTGGTTCCTACGGAGTCACCTAGTGCAG”: 10900 fluorescence intensity (a.u.).
For “AAATAAAAGTTCCTCACACGCACGCCCACGTCAGCGCATCCGGAGTCACCTAGTGCAG” the value was 10300 fluorescence intensity (a.u.).
In the case of “GTCATACATTAGCAGCCGCTGACCCCTGCATTAATAAACCCGGAGTCACCTAGTGCAG”, the binding signal was 8480 fluorescence intensity (a.u.).
“TCCATGTCATCGCCACCGTGTCACCCCTCCACCCAACCGACGGAGTCACCTAGTGCAG”: the binding signal was 9500 fluorescence intensity (a.u.).
For “CTGACGACTGGGTCCCACCACTCTTTCCGACCCCACCTGTCGGAGTCACCTAGTGCAG”, the binding signal is 8540 fluorescence intensity (a.u.).
For “ACGTAGGAAGGTGGAAGCGGTTTCTTGGGGTTTGGATATGCGGAGTCACCTAGTGCAG” the value was 11000 fluorescence intensity (a.u.); for “CTAGATCTACTCCTCTTCCTCACCTATCACACTGCCATGTCGGAGTCACCTAGTGCAG”, 9340 fluorescence intensity (a.u.).
The same measure for “TCTCATCCCAAGTAACTTTGACCGGTACTACAGGTAACATCGGAGTCACCTAGTGCAG”: 8660 fluorescence intensity (a.u.); for “CCTAGGTTTTCGTGTCCAGCGTTCGATTGTCCGTCTTATACGGAGTCACCTAGTGCAG”: 11100 fluorescence intensity (a.u.); for “TCTCGTCTCGTCTCCTTCTCATCCAATCTCAATCTCACCACGGAGTCACCTAGTGCAG”: 11500 fluorescence intensity (a.u.).
“GTGGGCTGTTTCCACGTCGTCCGTTTCTGGGCCGCACGTGCGGAGTCACCTAGTGCAG”: the binding signal is 12600 fluorescence intensity (a.u.).
For “CTATCGCCATCGATTCCGGTCACCGCTGCTTGCAACAAGACGGAGTCACCTAGTGCAG” the value was 8530 fluorescence intensity (a.u.); for “ATAGAAGCTACTCCGCATGTGAAAGACCAACCATTTTATTCGGAGTCACCTAGTGCAG”, 8450 fluorescence intensity (a.u.); for “TGTCGTCTATATCTCTCCGCGCGCGCTTTTGGAGCTTTCCCGGAGTCACCTAGTGCAG”, 10800 fluorescence intensity (a.u.).
For “TTACTTGATTGATATTTTTCATTTATTTTACTATTATAGTCGGAGTCACCTAGTGCAG” the value was 8810 fluorescence intensity (a.u.); for “GTCTCCCACATCCGCGGCGAGGGCGGTGCTCCGTTGACCGCGGAGTCACCTAGTGCAG”, 12200 fluorescence intensity (a.u.); for “GCTGGTGGTATGAGGAATTTGTTGTCGACACAATCGTTTACGGAGTCACCTAGTGCAG”, 8450 fluorescence intensity (a.u.).
Turning to “TTATTATATCGGATTGGCTACTCTTCTGTCGACAGATTTTCGGAGTCACCTAGTGCAG”, the binding signal was 10500 fluorescence intensity (a.u.).
With “GAATTTTAGGGTGGGATCTAAAGATGGCCTTAAAGGAGAACGGAGTCACCTAGTGCAG”, the binding signal is 8330 fluorescence intensity (a.u.).
The same measure for “GACGATTAACTCAGCTCTCATTGTTGTCAACTCGCTGACTCGGAGTCACCTAGTGCAG”: 11900 fluorescence intensity (a.u.); for “ACATACAACCTCTGCCCACATGTCAATTGCACACAGGGTTCGGAGTCACCTAGTGCAG”: 8600 fluorescence intensity (a.u.); for “TTGTTGTTCTCTTCCCTTGGGTTTTGTCTGTAACGTCGAGCGGAGTCACCTAGTGCAG”: 10200 fluorescence intensity (a.u.).
Turning to “GCTTATAGCCTGCTATTGTACCTGCTCTAACCTGATTTCCCGGAGTCACCTAGTGCAG”, the binding signal was 10100 fluorescence intensity (a.u.).
The same measure for “GAGCTTTTTATTGTTCATAATTATTATAGGATATTTTTTTCGGAGTCACCTAGTGCAG”: 10000 fluorescence intensity (a.u.); for “TTCCCGTTCCATTTCTTGCACAACTACTCCTCTAGCCAAACGGAGTCACCTAGTGCAG”: 8160 fluorescence intensity (a.u.).
Turning to “TCGCTTTTACCATCCGCCCTTGCTTTCTACTGTTATATATCGGAGTCACCTAGTGCAG”, the binding signal was 10800 fluorescence intensity (a.u.).
The same measure for “AATGACAACCCTAAGCTAATCCTAGGCACAATTTTTTACCCGGAGTCACCTAGTGCAG”: 9570 fluorescence intensity (a.u.); for “ATTCCTTCGTCTGTTGCTGCTGACTGCGCGGGGCGGAAGACGGAGTCACCTAGTGCAG”: 9910 fluorescence intensity (a.u.).
The same measure for “GTGCTGTAAACCTTGCTGCCCACTTGTCATCTCGTACTACCGGAGTCACCTAGTGCAG”: 13100 fluorescence intensity (a.u.); for “TTGGGTTGGACCAAGTTAGTGTTTGGTACATTGGCATTTTCGGAGTCACCTAGTGCAG”: 8620 fluorescence intensity (a.u.); for “AGCTAGTTTCCGACCGTATTCGATCCGTTTTCATCCTAGTCGGAGTCACCTAGTGCAG”: 8060 fluorescence intensity (a.u.).
For “GAAAGAAACAAGTGTGGGGTCATGCCTTGACCACATGCATCGGAGTCACCTAGTGCAG” the value was 9030 fluorescence intensity (a.u.).
For “GATGGGAAGTGCAATATTTGTTGGGGATCGCGAGGGAGAGCGGAGTCACCTAGTGCAG”, the binding signal is 9180 fluorescence intensity (a.u.).
With “ATTTAGGGAAATTATAACCATGCCACTCTGTCGTGTTTTCCGGAGTCACCTAGTGCAG”, the binding signal is 9180 fluorescence intensity (a.u.).
With “TTGTGGAGGAGGTGGGCGGCTATTCGGCGCCGGTTCTTGCCGGAGTCACCTAGTGCAG”, the binding signal was 8650 fluorescence intensity (a.u.).
For “ACTAATAACATCCTCACAAGTTGTTTGCTTGTTTTTCAACCGGAGTCACCTAGTGCAG” the value was 8590 fluorescence intensity (a.u.); for “TTTGTGCGTGTTACGAGTGACTTGCGTTTATATCCTGCTTCGGAGTCACCTAGTGCAG”, 8220 fluorescence intensity (a.u.).
